Experimental data as given in PubChem BioAssay AID504834 (National Center for Advancing Translational Sciences (NCATS), 2011).
Hit rate of the full screen: of about 320,000 compounds, about 22,000 (6.9%) were called active. Inconclusive means that the source gave no clear call. Such entries were picked first, then a sample of the others. The call rests on the fitted dose curve; in most records, active means well fitted inhibition curve with a large enough effect; inconclusive means small, poorly fitted or top-dose-only effect, or another doubt; inactive means no such curve, though single readings can be large or run the other way. Where the call is inconclusive, the potency comes from a doubtful curve fit.
On the % scale 0 is the no-effect control and ±100 the full control effect; potency means the concentration at half of the fitted maximal effect.

Assay: Primary qHTS for delayed death inhibitors of the malarial parasite plastid, 96 hour incubation
Conditions: P. falciparum luciferase reporter growth; series mostly up to 28.7 µM; activity change, negative = inhibition: at the top concentration
Method in brief: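 Compounds incubated with erythrocytes infected by luciferase-expressing P. falciparum (2% hematocrit, 0.05% parasitemia final) for 96 hours, 37 C in 5% CO2. Growth inhibition scored as decreased luciferase luminescence.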
With `COC(=O)c1ccccc1NC(=O)CSc1nnnn1CC(=O)O` the Potency was inconclusive: 11.7 µM [inhibitor, partial curve].
In the case of `CCOc1ccc(S(=O)(=O)N/N=C(\C)C2CCCCC2)cc1`, the Potency is reported as inconclusive: 16.5 µM [inhibitor, single point].
With `COc1ccc(-c2ccc(SCC(=O)NC3CCCCC3)nn2)cc1` the “activity change, negative = inhibition” value was inactive: 3.1%.
For `CC(=O)N1CCCN(Cc2cn(-c3cccc(C)c3)nc2-c2cccc(F)c2)CC1`, the Potency was inconclusive: 18.5 µM [inhibitor, single point].
In the case of `O=C(O)CC/C(=N\NC(=O)CNC(=O)c1cccc(Cl)c1)c1ccccc1`, the “activity change, negative = inhibition” value is reported as inactive: 5.36%.
For `Cc1sc(NC(=O)c2ccco2)c(C(c2cccnc2)N2CCCC2)c1C` (centres undefined), the Potency was active: 10.4 µM.
For `Cc1ccc(N(CCCCN2C(=O)c3ccccc3C2=O)C(=O)c2cccs2)cc1`, the Potency was inconclusive: 13.1 µM [inhibitor, partial curve].
In the case of `O=C(NC(C(=O)N/N=C/c1cccc2ccccc12)c1n[nH]c(=O)c2ccccc12)c1ccccc1` (centres undefined), the “activity change, negative = inhibition” value is reported as inactive: 49.3%.
For `CCN1C(=O)C(CC(=O)Nc2ccc(F)cc2)N(Cc2ccco2)C1=S` (centres undefined), the Potency was inconclusive: 18.5 µM [inhibitor, single point].
With `COc1ccc(OC)c(NC(=O)CCNS(=O)(=O)c2cccs2)c1` the “activity change, negative = inhibition” value was inactive: -3.03%.
In the case of `O=S(=O)(c1cc(Cl)ccc1Cl)N1CCc2ccccc21`, the Potency is reported as inconclusive: 18.5 µM [inhibitor, single point].
For `CCc1ccc(NC(=O)NCc2ccccn2)cc1`, the “activity change, negative = inhibition” value was inactive: 120%.
In the case of `C=CCOc1ccc(C(=O)Nc2ccccc2C(=O)NCc2cccnc2)cc1`, the “activity change, negative = inhibition” value is reported as inactive: 11.9%.
With `Cc1ccc(S(=O)(=O)N2CCOC2CNC(=O)C(=O)NCCCc2ccccc2)cc1` (centres undefined) the “activity change, negative = inhibition” value was inactive: 4.42%.
With `COc1cc(/C=N/NC(=O)CN(Cc2ccccc2)S(=O)(=O)c2ccc3c(c2)OCCO3)ccc1O` the “activity change, negative = inhibition” value was inactive: -15.3%.
For `CCCCNC(=O)Cn1c(=O)oc2cc(S(=O)(=O)N3CC(C)CC(C)C3)ccc21` (centres undefined), the Potency was active: 6.57 µM.
For `O=C(Cc1csc(NC(=O)Nc2cccc(Cl)c2)n1)NCc1cccnc1`, the “activity change, negative = inhibition” value was inactive: 2.56%.
With `Cc1cccc(C)c1NC(=O)CNC(=O)C(C)N1CCN(c2cccc(Cl)c2)CC1` (centres undefined) the “activity change, negative = inhibition” value was inactive: -8.23%.
With `COc1ccc(OC)c(CN2CCN(C(=O)CCC(=O)c3cccs3)CC2)c1` the “activity change, negative = inhibition” value was inactive: -19.4%.
With `CN1CC(c2ccccc2)C2(COc3ccccc3C2=O)C12C(=O)Nc1ccccc12` (centres undefined) the Potency was inconclusive: 0.738 µM [inhibitor, partial curve, poor fit].
In the case of `O=C(NC1CCCC1)c1cccc2c1C(=O)c1ccc(N3CCCCC3)cc1S2(=O)=O`, the “activity change, negative = inhibition” value is reported as inactive: 42.1%.
With `O=C(NCCCc1ccc(F)cc1)C1CCC(=O)N(CCN2CCOCC2)C1` (centres undefined) the Potency was inconclusive: 18.5 µM [inhibitor, single point].
With `Cc1ccc(C(=O)CSC2=C(C#N)C(c3ccco3)C3=C(CCCC3=O)N2)cc1` (centres undefined) the “activity change, negative = inhibition” value was inactive: -24%.
With `Cc1ccc(S(=O)(=O)N2CCC(C(=O)Nc3ccccc3N3CCCC3)CC2)c(C)c1` the Potency was inconclusive: 0.37 µM [inhibitor, partial curve, poor fit].
For `COc1ccc(CNC(=O)CN(c2cc(C)cc(C)c2)S(=O)(=O)c2c(C)[nH]c(=O)[nH]c2=O)cc1`, the Potency was inconclusive: 14.7 µM [inhibitor, partial curve, poor fit].
For `Cc1ccc(C(=O)NCc2ccc3c(c2)OCO3)cc1S(=O)(=O)N1CCCCC1`, the “activity change, negative = inhibition” value was inactive: 0%.
For `CCCOC1CCCN(C(=O)CCc2nnc(CCCCc3ccccc3)o2)C1` (centres undefined), the Potency was inconclusive: 18.5 µM [inhibitor, single point].
For `O=C(CSc1nnc2ccc(-c3cccnc3)nn12)Nc1ccc(F)cc1`, the Potency was inconclusive: 3.7 µM [inhibitor, full curve, poor fit].
With `CCOC(=O)c1ccccc1NC(=O)CSc1ccc(-c2ccccn2)nn1` the Potency was inconclusive: 18.5 µM [inhibitor, single point].
For `O=C(CSc1ncccn1)N/N=C/c1cccc(OC2CSC2)c1`, the Potency was active: 11.7 µM.
With `O=C(c1cccnc1)N1C2CCC1CC(O)(c1ccc(F)cc1)C2` (centres undefined) the “activity change, negative = inhibition” value was inactive: 69.9%.
For `COCCCNC(=O)c1ccc2c(=O)n(Cc3ccc(OC)cc3)c(=O)[nH]c2c1`, the Potency was inconclusive: 14.7 µM [inhibitor, partial curve].
In the case of `COc1ccc(NS(=O)(=O)c2ccc(Oc3cccc(C(=O)O)c3)cc2)cc1`, the Potency is reported as inconclusive: 3.29 µM [inhibitor, partial curve, poor fit].
With `COc1ccc(C2(C(=O)Nc3nncs3)CCCC2)cc1` the Potency was inconclusive: 18.5 µM [inhibitor, single point].
For `Cc1c(C(=O)OC2CCCC2)[nH]c2c1C(=O)CC(c1ccco1)C2` (centres undefined), the Potency was inconclusive: 4.65 µM [inhibitor, partial curve, poor fit].
In the case of `CC(C)CNC(=O)c1cccc2c1-c1ccccc1C2=O`, the Potency is reported as inconclusive: 13.1 µM [inhibitor, single point].
For `COc1ccc(Cc2nnc(NC(=O)CSc3ccc(C)cc3)s2)cc1OC`, the Potency was inconclusive: 18.5 µM [inhibitor, single point].
In the case of `CSCC(=O)N1CCC(n2nccc2NC(=O)CCc2ccccc2)CC1`, the Potency is reported as inconclusive: 2.94 µM [inhibitor, partial curve].
With `O=C(N/N=C(\CC(=O)c1cccs1)C(F)(F)F)c1cccnc1` the Potency was inconclusive: 11.7 µM [inhibitor, partial curve, poor fit].
With `CCOc1ccc(C(O)c2nccn2Cc2ccccc2)cc1` (centres undefined) the Potency was inconclusive: 20.8 µM [inhibitor, single point].
For `Fc1cccc(Cc2noc(CN3CCOCC3)n2)c1`, the “activity change, negative = inhibition” value was inactive: -0.811%.
In the case of `COc1cccc(CNC(=O)c2ccc3c(c2)S(=O)(=O)N=C2CCCCCN23)c1`, the Potency is reported as inconclusive: 0.0029 µM [inhibitor, full curve, poor fit].
In the case of `O=C(CNC(=O)c1ccc(OC(F)F)cc1)Nc1cccc(S(=O)(=O)N2CCCC2)c1`, the “activity change, negative = inhibition” value is reported as inactive: -73.4%.
In the case of `C=CCc1ccccc1OCC(=O)O`, the Potency is reported as inconclusive: 0.928 µM [inhibitor, full curve, poor fit].
In the case of `CC(C)c1ccccc1OCC(=O)Nc1ccc2[nH]ncc2c1`, the Potency is reported as inconclusive: 3.7 µM [inhibitor, partial curve, poor fit].
For `CSc1ccc2c(c1)C(N1CCN(C)CC1)Cc1ccccc1S2` (centres undefined), the Potency was inconclusive: 8.28 µM [inhibitor, partial curve, poor fit].
With `CC(C(=O)NCC1CCCCC1)N1CCN(S(=O)(=O)c2ccccc2F)CC1` (centres undefined) the Potency was inconclusive: 4.15 µM [inhibitor, single point].
In the case of `Cc1ccc2nc3c(cc(C(=O)NCc4ccco4)c(=N)n3C3CCCC3)c(=O)n2c1`, the Potency is reported as inconclusive: 11.7 µM [inhibitor, single point].
In the case of `Cc1ccc(Nc2cc(C)nc3ccc(C)cc23)cc1`, the Potency is reported as active: 0.0415 µM.
In the case of `COc1ccc(CC(=O)O/N=C(\N)c2ccc(Br)cc2)cc1OC`, the “activity change, negative = inhibition” value is reported as inactive: 0%.
For `CC(C)(C)C(=O)Oc1ccc(S(=O)(=O)Nc2ccccc2C(=O)NCC(=O)O)cc1`, the Potency was active: 13.5 µM.
For `CCCCN1C(=O)/C(=C/C=C2/CC(C)(C)CN2C)SC1=S`, the Potency was inconclusive: 2.62 µM [inhibitor, full curve].
For `COCCNC(=O)Cc1c(C)c2c(cc(C)c3c(C(C)(C)C)coc32)oc1=O`, the Potency was inconclusive: 18.5 µM [inhibitor, single point].
For `NS(=O)(=O)c1ccc(CCNC(=O)c2ccc(Cl)cc2[N+](=O)[O-])cc1`, the Potency was inconclusive: 4.65 µM [inhibitor, partial curve, poor fit].
In the case of `COc1ccc(OC)c(NC2=NC3(CCCCC3)N=C(N)N2)c1`, the “activity change, negative = inhibition” value is reported as inactive: -17.3%.
In the case of `Fc1ccc(-c2ccnc3nc(N4CCOCC4)nn23)cc1`, the Potency is reported as inconclusive: 3.7 µM [inhibitor, single point].
For `Cn1cnc(S(=O)(=O)NCc2ccc(Br)cc2)c1`, the Potency was inconclusive: 18.5 µM [inhibitor, single point].
In the case of `COc1ccc(C(=O)C2CCCN(Cc3cn(C)nc3-c3ccccc3)C2)cc1F` (centres undefined), the Potency is reported as active: 9.28 µM.
For `Cc1ccc(C2=NN3C(C(=O)c4ccccc4)Oc4ccccc4C3C2)cc1` (centres undefined), the Potency was inconclusive: 18.5 µM [inhibitor, single point].
For `O=C(CSc1nnc(CNC(=O)c2cccs2)o1)Nc1ccc2c(c1)OCO2`, the Potency was inconclusive: 0.0928 µM [inhibitor, full curve].
In the case of `Fc1ccc(-c2csc3ncnc(N4CCN(Cc5ccccc5)CC4)c23)cc1`, the Potency is reported as active: 9.28 µM.
In the case of `O=C(NC1CCSc2ccccc21)c1cc([N+](=O)[O-])ccc1N1CCOCC1` (centres undefined), the Potency is reported as inconclusive: 13.1 µM [inhibitor, single point].
In the case of `Cc1ccccc1N1CCN(C2CCCN(C(=O)CCN3CCCCC3=O)C2)CC1` (centres undefined), the Potency is reported as inconclusive: 4.15 µM [inhibitor, full curve].
With `COc1cc(OC)cc(N(C(=O)c2ccco2)C(C(=O)NC2CCCC2)c2ccc(N(C)C)cc2)c1` (centres undefined) the Potency was inconclusive: 0.0828 µM [inhibitor, full curve, poor fit].
With `COc1ccccc1-c1nnc(NC(=O)c2ccc(S(=O)(=O)N(C)CC3CCCO3)cc2)o1` (centres undefined) the Potency was inconclusive: 9.28 µM [inhibitor, partial curve, poor fit].
For `COc1ccc(C2CC(c3cccs3)n3nc(N)nc3N2)cc1` (centres undefined), the Potency was inconclusive: 9.28 µM [inhibitor, partial curve, poor fit].
For `C=CCSC1=NN2CCS(=O)(=O)N=C2S1`, the “activity change, negative = inhibition” value was inactive: 10.7%.
For `Cc1cc(C)c(NC(=S)NCC2CCN(C(C)c3ccccc3)C2)c(C)c1` (centres undefined), the Potency was inconclusive: 0.0828 µM [inhibitor, full curve, poor fit].
With `CNC(=O)c1ccsc1NC(=O)C1CCN(S(=O)(=O)c2ccc(Cl)s2)CC1` the Potency was inconclusive: 18.5 µM [inhibitor, single point].
